# Assay results taken from the supplement of paper PMC8728848.
# The list shows a part of the results.
# B1: CBP21 (Serratia marcescens), O83009 (protein)
# chain: MNKTSRTLLSLGLLSAAMFGVSQQANAHGYVESPASRAYQCKLQLNTQCGSVQAEPQSVEGLKGFPQAGPADGHIASADKSTFFELDQQTPTRWNKLNLKTGPNSFTWKLTARHSTTSWRYFITKPNWDASQPLTRASFDLTPFCQFNDGGAIPAAQVTHQCNIPADRSGSHVILAVWDIADTANAFYQAIDVNLSK
# Assays:
# Test in all cases: glycan array binding signal (z-score within array); higher = stronger binding
# Conditions in all cases: glycan notation: IUPAC condensed, linker removed; mutation: Y54A
# Glc(b1-4)Glc = target: Glc(b1-4)Glc
# How it was run: (§1)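 From the Consortium for Functional Glycomics database, 3228 arrays were curated, keeping only those whose protein sequence was available. Binding is given as a within-array Z-score averaged across arrays sharing a protein sequence and across linkers. Negative Z-scores can be read as non-binding.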
# Glc(b1-6)Glc = target: Glc(b1-6)Glc
# How it was run: as §1
# GlcA(b1-3)Gal = target: GlcA(b1-3)Gal
# How it was run: as §1
# GlcA(b1-3)GlcNAc = target: GlcA(b1-3)GlcNAc
# How it was run: as §1
# GlcA(b1-6)Gal = target: GlcA(b1-6)Gal
# How it was run: as §1
# [1] = target: GlcA3S(b1-3)Gal(b1-4)GlcNAc(b1-2)Man
# How it was run: as §1
# [2] = target: GlcA3S(b1-3)Gal(b1-4)GlcNAc(b1-3)Gal(b1-4)Glc
# How it was run: as §1
# [3] = target: GlcNAc(a1-3)Gal(b1-4)GlcNAc
# How it was run: as §1
# [4] = target: GlcNAc(a1-4)Gal(b1-3)GlcNAc
# How it was run: as §1
# [5] = target: GlcNAc(a1-4)Gal(b1-4)GalNAc
# How it was run: as §1
# [6] = target: GlcNAc(a1-4)Gal(b1-4)GlcNAc
# How it was run: as §1
# [7] = target: GlcNAc(a1-4)Gal(b1-4)GlcNAc(b1-3)Gal(b1-4)Glc
# How it was run: as §1
# [8] = target: GlcNAc(a1-4)Gal(b1-4)GlcNAc(b1-3)Gal(b1-4)GlcNAc
# How it was run: as §1
# [9] = target: GlcNAc(a1-4)Gal(b1-4)GlcNAc(b1-3)Gal(b1-4)GlcNAc(b1-3)Gal(b1-4)GlcNAc
# How it was run: as §1
# [10] = target: GlcNAc(a1-4)Gal(b1-4)GlcNAc(b1-3)Gal(b1-4)[Fuc(a1-3)]GlcNAc(b1-3)Gal(b1-4)[Fuc(a1-3)]GlcNAc
# How it was run: as §1
# [11] = target: GlcNAc(a1-6)Gal(b1-4)GlcNAc
# How it was run: as §1
# [12] = target: GlcNAc(b1-2)Gal(b1-3)GalNAc
# How it was run: as §1
# [13] = target: GlcNAc(b1-2)Man(a1-3)[GlcNAc(b1-2)Man(a1-6)]Man(b1-4)GlcNAc(b1-4)GlcNAc
# How it was run: as §1
# [14] = target: GlcNAc(b1-2)Man(a1-3)[GlcNAc(b1-2)Man(a1-6)]Man(b1-4)GlcNAc(b1-4)[Fuc(a1-6)]GlcNAc
# How it was run: as §1
# [15] = target: GlcNAc(b1-2)Man(a1-3)[GlcNAc(b1-4)][GlcNAc(b1-2)Man(a1-6)]Man(b1-4)GlcNAc(b1-4)GlcNAc
# How it was run: as §1
# [16] = target: GlcNAc(b1-2)Man(a1-3)[GlcNAc(b1-4)][GlcNAc(b1-2)Man(a1-6)]Man(b1-4)GlcNAc(b1-4)[Fuc(a1-6)]GlcNAc
# How it was run: as §1
# [17] = target: GlcNAc(b1-2)[GlcNAc(b1-4)]Man(a1-3)[GlcNAc(b1-2)Man(a1-6)]Man(b1-4)GlcNAc(b1-4)GlcNAc
# How it was run: as §1
# [18] = target: GlcNAc(b1-2)[GlcNAc(b1-4)]Man(a1-3)[GlcNAc(b1-4)][GlcNAc(b1-2)Man(a1-6)]Man(b1-4)GlcNAc(b1-4)GlcNAc
# How it was run: as §1
# [19] = target: GlcNAc(b1-2)[GlcNAc(b1-4)]Man(a1-3)[GlcNAc(b1-4)][GlcNAc(b1-2)[GlcNAc(b1-6)]Man(a1-6)]Man(b1-4)GlcNAc(b1-4)GlcNAc
# How it was run: as §1
# [20] = target: GlcNAc(b1-2)[GlcNAc(b1-4)]Man(a1-3)[GlcNAc(b1-4)][GlcNAc(b1-2)[GlcNAc(b1-6)]Man(a1-6)]Man(b1-4)GlcNAc(b1-4)[Fuc(a1-6)]GlcNAc
# How it was run: as §1
# [21] = target: GlcNAc(b1-2)[GlcNAc(b1-6)]Man(a1-6)[GlcNAc(b1-2)Man(a1-3)]Man(b1-4)GlcNAc(b1-4)GlcNAc
# How it was run: as §1
# [22] = target: GlcNAc(b1-2)[GlcNAc(b1-6)]Man(a1-6)[GlcNAc(b1-2)Man(a1-3)]Man(b1-4)GlcNAc(b1-4)[Fuc(a1-6)]GlcNAc
# How it was run: as §1
# [23] = target: GlcNAc(b1-2)[GlcNAc(b1-6)]Man(a1-6)[GlcNAc(b1-4)][GlcNAc(b1-2)Man(a1-3)]Man(b1-4)GlcNAc(b1-4)GlcNAc
# How it was run: as §1
# GlcNAc(b1-3)Fuc = target: GlcNAc(b1-3)Fuc
# How it was run: as §1
# GlcNAc(b1-3)Gal = target: GlcNAc(b1-3)Gal
# How it was run: as §1
# [24] = target: GlcNAc(b1-3)Gal(b1-3)GalNAc
# How it was run: as §1
# GlcNAc(b1-3)Gal(b1-4)Glc = target: GlcNAc(b1-3)Gal(b1-4)Glc
# How it was run: as §1
# [25] = target: GlcNAc(b1-3)Gal(b1-4)GlcNAc
# How it was run: as §1
# [26] = target: GlcNAc(b1-3)Gal(b1-4)GlcNAc(b1-2)Man(a1-3)[GlcNAc(b1-3)Gal(b1-4)GlcNAc(b1-2)Man(a1-6)]Man(b1-4)GlcNAc(b1-4)GlcNAc
# How it was run: as §1
# [27] = target: GlcNAc(b1-3)Gal(b1-4)GlcNAc(b1-2)Man(a1-3)[GlcNAc(b1-3)Gal(b1-4)GlcNAc(b1-2)Man(a1-6)]Man(b1-4)GlcNAc(b1-4)[Fuc(a1-6)]GlcNAc
# How it was run: as §1
# [28] = target: GlcNAc(b1-3)Gal(b1-4)GlcNAc(b1-2)[GlcNAc(b1-3)Gal(b1-4)GlcNAc(b1-6)]Man(a1-6)[GlcNAc(b1-3)Gal(b1-4)GlcNAc(b1-2)Man(a1-3)]Man(b1-4)GlcNAc(b1-4)GlcNAc
# How it was run: as §1
# [29] = target: GlcNAc(b1-3)Gal(b1-4)GlcNAc(b1-3)Gal(b1-4)GlcNAc
# How it was run: as §1
# [30] = target: GlcNAc(b1-3)Gal(b1-4)GlcNAc(b1-3)Gal(b1-4)GlcNAc(b1-2)Man(a1-3)[GlcNAc(b1-3)Gal(b1-4)GlcNAc(b1-3)Gal(b1-4)GlcNAc(b1-2)Man(a1-6)]Man(b1-4)GlcNAc(b1-4)GlcNAc
# How it was run: as §1
# [31] = target: GlcNAc(b1-3)Gal(b1-4)GlcNAc(b1-3)Gal(b1-4)GlcNAc(b1-2)Man(a1-3)[GlcNAc(b1-3)Gal(b1-4)GlcNAc(b1-3)Gal(b1-4)GlcNAc(b1-2)Man(a1-6)]Man(b1-4)GlcNAc(b1-4)[Fuc(a1-6)]GlcNAc
# How it was run: as §1
# [32] = target: GlcNAc(b1-3)Gal(b1-4)GlcNAc(b1-3)Gal(b1-4)GlcNAc(b1-2)[GlcNAc(b1-3)Gal(b1-4)GlcNAc(b1-3)Gal(b1-4)GlcNAc(b1-6)]Man(a1-6)[GlcNAc(b1-3)Gal(b1-4)GlcNAc(b1-3)Gal(b1-4)GlcNAc(b1-2)Man(a1-3)]Man(b1-4)GlcNAc(b1-4)[Fuc(a1-6)]GlcNAc
# How it was run: as §1
# [33] = target: GlcNAc(b1-3)Gal(b1-4)GlcNAc(b1-3)Gal(b1-4)GlcNAc(b1-3)Gal(b1-4)GlcNAc(b1-2)Man(a1-3)[GlcNAc(b1-3)Gal(b1-4)GlcNAc(b1-3)Gal(b1-4)GlcNAc(b1-3)Gal(b1-4)GlcNAc(b1-2)Man(a1-6)]Man(b1-4)GlcNAc(b1-4)GlcNAc
# How it was run: as §1
# [34] = target: GlcNAc(b1-3)Gal(b1-4)GlcNAc(b1-3)Gal(b1-4)GlcNAc(b1-3)Gal(b1-4)GlcNAc(b1-2)Man(a1-3)[GlcNAc(b1-3)Gal(b1-4)GlcNAc(b1-3)Gal(b1-4)GlcNAc(b1-3)Gal(b1-4)GlcNAc(b1-2)Man(a1-6)]Man(b1-4)GlcNAc(b1-4)[Fuc(a1-6)]GlcNAc
# How it was run: as §1
# [35] = target: GlcNAc(b1-3)Gal(b1-4)GlcNAc(b1-3)Gal(b1-4)GlcNAc(b1-3)Gal(b1-4)GlcNAc(b1-2)[GlcNAc(b1-3)Gal(b1-4)GlcNAc(b1-3)Gal(b1-4)GlcNAc(b1-3)Gal(b1-4)GlcNAc(b1-6)]Man(a1-6)[GlcNAc(b1-3)Gal(b1-4)GlcNAc(b1-3)Gal(b1-4)GlcNAc(b1-3)Gal(b1-4)GlcNAc(b1-2)Man(a1-3)]Man(b1-4)GlcNAc(b1-4)[Fuc(a1-6)]GlcNAc
# How it was run: as §1
# [36] = target: GlcNAc(b1-3)Gal(b1-4)GlcNAc(b1-3)Gal(b1-4)GlcNAc(b1-3)Gal(b1-4)GlcNAc(b1-3)Gal(b1-4)GlcNAc(b1-2)Man(a1-3)[GlcNAc(b1-3)Gal(b1-4)GlcNAc(b1-3)Gal(b1-4)GlcNAc(b1-3)Gal(b1-4)GlcNAc(b1-3)Gal(b1-4)GlcNAc(b1-2)Man(a1-6)]Man(b1-4)GlcNAc(b1-4)GlcNAc
# How it was run: as §1
# [37] = target: GlcNAc(b1-3)Gal(b1-4)GlcNAc(b1-3)Gal(b1-4)GlcNAc(b1-3)Gal(b1-4)GlcNAc(b1-3)Gal(b1-4)GlcNAc(b1-2)Man(a1-3)[GlcNAc(b1-3)Gal(b1-4)GlcNAc(b1-3)Gal(b1-4)GlcNAc(b1-3)Gal(b1-4)GlcNAc(b1-3)Gal(b1-4)GlcNAc(b1-2)Man(a1-6)]Man(b1-4)GlcNAc(b1-4)[Fuc(a1-6)]GlcNAc
# How it was run: as §1
binder,measurement,setting,value
B1,glycan array binding signal (z-score),Glc(b1-4)Glc,-0.067
same,glycan array binding signal (z-score),Glc(b1-6)Glc,-0.267
same,glycan array binding signal (z-score),GlcA(b1-3)Gal,-0.275
same,glycan array binding signal (z-score),GlcA(b1-3)GlcNAc,-0.631
same,glycan array binding signal (z-score),GlcA(b1-6)Gal,0.189
same,glycan array binding signal (z-score),[1],-0.696
same,glycan array binding signal (z-score),[2],-0.278
same,glycan array binding signal (z-score),[3],1.94
same,glycan array binding signal (z-score),[4],-0.693
same,glycan array binding signal (z-score),[5],-0.35
same,glycan array binding signal (z-score),[6],-0.022
same,glycan array binding signal (z-score),[7],-0.876
same,glycan array binding signal (z-score),[8],-1.2
same,glycan array binding signal (z-score),[9],0.011
same,glycan array binding signal (z-score),[10],0.189
same,glycan array binding signal (z-score),[11],-0.367
same,glycan array binding signal (z-score),[12],-0.7
same,glycan array binding signal (z-score),[13],0.384
same,glycan array binding signal (z-score),[14],0.33
same,glycan array binding signal (z-score),[15],-0.76
same,glycan array binding signal (z-score),[16],-0.472
same,glycan array binding signal (z-score),[17],-0.533
same,glycan array binding signal (z-score),[18],1.27
same,glycan array binding signal (z-score),[19],0.29
same,glycan array binding signal (z-score),[20],0.198
same,glycan array binding signal (z-score),[21],0.82
same,glycan array binding signal (z-score),[22],0.904
same,glycan array binding signal (z-score),[23],1.86
same,glycan array binding signal (z-score),GlcNAc(b1-3)Fuc,-0.348
same,glycan array binding signal (z-score),GlcNAc(b1-3)Gal,-1.08
same,glycan array binding signal (z-score),[24],1.43
same,glycan array binding signal (z-score),GlcNAc(b1-3)Gal(b1-4)Glc,0.599
same,glycan array binding signal (z-score),[25],-0.779
same,glycan array binding signal (z-score),[26],0.437
same,glycan array binding signal (z-score),[27],-2.24
same,glycan array binding signal (z-score),[28],-0.141
same,glycan array binding signal (z-score),[29],-1.2
same,glycan array binding signal (z-score),[30],0.016
same,glycan array binding signal (z-score),[31],-0.869
same,glycan array binding signal (z-score),[32],-0.223
same,glycan array binding signal (z-score),[33],-0.609
same,glycan array binding signal (z-score),[34],-0.372
same,glycan array binding signal (z-score),[35],0.727
same,glycan array binding signal (z-score),[36],2.04
same,glycan array binding signal (z-score),[37],-0.624

# 13 neighbouring entries already listed:
binder,measurement,setting,value
B1,glycan array binding signal (z-score),[20],0.198
same,glycan array binding signal (z-score),[21],0.82
same,glycan array binding signal (z-score),[22],0.904
same,glycan array binding signal (z-score),[23],1.86
same,glycan array binding signal (z-score),GlcNAc(b1-3)Fuc,-0.348
same,glycan array binding signal (z-score),GlcNAc(b1-3)Gal,-1.08
same,glycan array binding signal (z-score),[24],1.43
same,glycan array binding signal (z-score),GlcNAc(b1-3)Gal(b1-4)Glc,0.599
same,glycan array binding signal (z-score),[25],-0.779
same,glycan array binding signal (z-score),[26],0.437
same,glycan array binding signal (z-score),[27],-2.24
same,glycan array binding signal (z-score),[28],-0.141
same,glycan array binding signal (z-score),[29],-1.2
